PubChem BioAssay AID686943 | Drosophila RNAi Screening Center – 2013

Purpose: 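Fly genes whose loss alters ERK activation after insulin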 (primary screen)
Cells: Drosophila S2R+ haemocyte-like cells expressing YFP-tagged ERK (Rolled)
Knock-down reagent: long dsRNA against Drosophila genes
Conditions: insulin stimulation versus unstimulated cells; dose and duration not given
Read-out: 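Antibody staining for doubly phosphorylated ERK divided by ERK-YFP signal, as plate z-scores, in insulin-treated and untreated cells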
Scale: replicate 1, z-score of dpERK with insulin and replicate 2, z-score of dpERK with insulin: higher = more active ERK per ERK-YFP after insulin
In all, the deposit lists about 23,000 reagents; this is an unselected part of those that have a named target and a result. 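Extra replicates exist only for a retested subset of genes; insulin dose and duration not given; both raised and lowered dpERK matter.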 Reagents against one gene are numbered here. Not all columns of the deposit are shown. The record does not give: the amount of reagent, the time to read-out.

Silencing of thoc7 resulted in: replicate 1, z-score of dpERK with insulin -0.15; replicate 2, z-score of dpERK with insulin -0.2. ppk22 (pickpocket 22) showed replicate 1, z-score of dpERK with insulin -0.19; replicate 2, z-score of dpERK with insulin 0.73. Against CG13361, the entry reads replicate 1, z-score of dpERK with insulin -0.02; replicate 2, z-score of dpERK with insulin -0.66. Against Cubn2 (Cubilin 2) #1 the deposit lists replicate 1, z-score of dpERK with insulin 0.42; replicate 2, z-score of dpERK with insulin 0.74. Depletion of Cubn2 (Cubilin 2) #2 gave: replicate 1, z-score of dpERK with insulin -0.44; replicate 2, z-score of dpERK with insulin -0.45.

No new results follow: entries from further up.
thoc7 | replicate 1, z-score of dpERK with insulin: -0.15; replicate 2, z-score of dpERK with insulin: -0.2
ppk22 (pickpocket 22) | replicate 1, z-score of dpERK with insulin: -0.19; replicate 2, z-score of dpERK with insulin: 0.73

The list goes on.
Knock-down of boss (bride of sevenless) came out at: replicate 1, z-score of dpERK with insulin 1.12; replicate 2, z-score of dpERK with insulin -0.05. Knock-down of Sbds (SBDS ribosome maturation factor) came out at: replicate 1, z-score of dpERK with insulin 0.04; replicate 2, z-score of dpERK with insulin 0.07. Mybbp1A (MYB binding protein 1a) showed replicate 1, z-score of dpERK with insulin -0.6; replicate 2, z-score of dpERK with insulin 0.17. CG12645 scored replicate 1, z-score of dpERK with insulin 0.77; replicate 2, z-score of dpERK with insulin 0.59. Knock-down of CG14131 resulted in: replicate 1, z-score of dpERK with insulin -0.68; replicate 2, z-score of dpERK with insulin 0.57. CG13954 gave replicate 1, z-score of dpERK with insulin -0.11; replicate 2, z-score of dpERK with insulin 0.19.

Against Try29F (Trypsin 29F) the deposit lists replicate 1, z-score of dpERK with insulin -0.77; replicate 2, z-score of dpERK with insulin 0.77.
